Laboratory results: PubChem BioAssay AID1159584 (Peter MacCallum Cancer Centre, 2016)

Purpose: 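Knock-downs that harm CDH1-null cells more than parental MCF10A cells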 (primary screen)
Cell system: human MCF10A breast epithelial cells, parental and CDH1-null
Reagents: siRNA against human genes
Detection: 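Cell viability by CellTiter-Glo ATP luminescence, each line scaled to the mean of mock wells across plates, then CDH1-null over parental ratio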
Scale: CDH1-null / parental viability ratio: higher = CDH1-null cells survive relatively better than parental; CDH1-null viability vs mock: higher = more viable CDH1-null cells; parental viability vs mock: higher = more viable parental cells
This is a random part of about 18,000 reagents tested. Not given: the amount of reagent, the time to read-out.

| Gene | PubChem SID | CDH1-null / parental viability ratio | CDH1-null viability vs mock (fraction of mock) | parental viability vs mock (fraction of mock) |
| --- | --- | --- | --- | --- |
| CPM | SID152150421 | 0.99 | 0.81 | 0.82 |
| RHOBTB2 | SID134314017 | 1 | 0.94 | 0.94 |
| GPANK1 | SID134317913 | 1.34 | 1.18 | 0.88 |
| GABPB1 | SID152148790 | 1.1 | 1.03 | 0.94 |
| PLD2 | SID152147084 | 0.95 | 0.84 | 0.88 |
| FOLR2 | SID152153621 | 1 | 0.68 | 0.68 |
| FBXO38 | SID135623465 | 0.95 | 0.76 | 0.8 |
| C12orf43 | SID134318403 | 0.77 | 0.72 | 0.93 |
| MRPL21 | SID135623670 | 1.08 | 0.96 | 0.89 |
| ENPP3 | SID135620839 | 0.9 | 0.76 | 0.84 |
| HOXB2 | SID152147382 | 0.99 | 1.08 | 1.09 |
| PGLYRP1 | SID134314014 | 1.06 | 1.06 | 1 |
| SDS | SID134313100 | 0.99 | 0.9 | 0.91 |
| PMS1 | SID152147694 | 1.01 | 1.16 | 1.15 |
| SPANXD | SID135623330 | 1.72 | 0.31 | 0.18 |
| SPANXD | SID135623331 | 1.65 | 0.33 | 0.2 |

A run of entries taken from the entries so far:
| Gene | PubChem SID | CDH1-null / parental viability ratio | CDH1-null viability vs mock (fraction of mock) | parental viability vs mock (fraction of mock) |
| --- | --- | --- | --- | --- |
| PLD2 | SID152147084 | 0.95 | 0.84 | 0.88 |
| FOLR2 | SID152153621 | 1 | 0.68 | 0.68 |

Additional entries follow:
| Gene | PubChem SID | CDH1-null / parental viability ratio | CDH1-null viability vs mock (fraction of mock) | parental viability vs mock (fraction of mock) |
| --- | --- | --- | --- | --- |
| CNDP2 | SID134311240 | 1.23 | 0.91 | 0.74 |
| TSEN2 | SID134320656 | 0.99 | 0.9 | 0.91 |
| USP18 | SID135620798 | 1.24 | 0.77 | 0.62 |
| SH3BP1 | SID135621799 | 0.85 | 0.73 | 0.86 |
| ANGPTL4 | SID135621446 | 1.03 | 0.92 | 0.89 |
| MRPS23 | SID135622428 | 0.88 | 0.6 | 0.68 |
| MOV10L1 | SID134317614 | 1.01 | 0.68 | 0.67 |
| ADARB1 | SID135621734 | 0.75 | 0.78 | 1.04 |
| NASP | SID135622190 | 1.11 | 0.4 | 0.36 |
| PABPN1L | SID135624926 | 1.22 | 0.56 | 0.46 |
| RERE | SID135621556 | 0.64 | 0.62 | 0.97 |
| C20orf141 | SID134319313 | 1.33 | 0.93 | 0.7 |
